Experiment [1] addresses CXCR4 wt (transfected 293T cells) (human) (UniProt P61073). As to the kind of experiment: flow cytometry on cells; 12G5 antibody competition on 293T cells transiently transfected with CXCR4 wt or mutants (IRES-eGFP vector), eGFP-positive cells gated; serially diluted peptide with a constant concentration of CXCR4 antibody clone 12G5, 2 h; bound antibody read; IC50 by nonlinear …; only the binder purified.

Protein sequences, listed by entry. Tags and fused reporters are not part of them. Lines headed by an entry give the natural chain unless they say otherwise; changes in a name come on top.
UniProt P61073: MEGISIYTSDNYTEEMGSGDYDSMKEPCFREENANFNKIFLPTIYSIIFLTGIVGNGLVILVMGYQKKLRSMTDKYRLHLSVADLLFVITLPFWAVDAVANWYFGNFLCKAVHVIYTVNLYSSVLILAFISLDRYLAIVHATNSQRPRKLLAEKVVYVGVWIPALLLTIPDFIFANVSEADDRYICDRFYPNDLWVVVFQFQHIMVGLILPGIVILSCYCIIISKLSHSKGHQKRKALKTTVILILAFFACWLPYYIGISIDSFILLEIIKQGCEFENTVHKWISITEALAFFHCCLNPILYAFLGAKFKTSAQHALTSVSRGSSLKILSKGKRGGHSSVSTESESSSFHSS

The next experiment concerns the target CXCR4 D262A (human) (UniProt P61073). The experiment is described as above.
A further experiment addresses CXCR4 D187E (human) (UniProt P61073). The description is as above.
Experiment [2] concerns the target C-X-C motif chemokine receptor 4 (CXCR4) on SupT1 cells (human (endogenous in SupT1)) (UniProt P61073). As to the kind of experiment: flow cytometry on cells; 12G5 antibody competition on SupT1 cells; peptides in PBS with APC-conjugated 12G5 at a concentration close to its EC50, 4 °C, 2 h; MFI normalized to PBS control; IC50 by nonlinear regression; only the binder purified. Background: In flow cytometry, cells or beads pass a laser one at a time.

Results on three molecules are retold here after article PMC8458281, “Computational modeling and experimental validation of the EPI-X4/CXCR4 complex allows rational design of small peptide antagonists” (Communications Biology, 2021).

No constants are given. Whether binding was seen depends on the method and setting. Some results given as binding are weak or reduced against the parent protein; the word gives no strength.

B1: EPI-X4 JM#21 (peptide)
peptide: ILRWSRKLPCVS
notes: source: synthetic peptide (Fmoc solid-phase synthesis, HPLC-purified)
On to B1, for which the binding entry (in experiment [1]; in the experiment with CXCR4 D262A (human); with CXCR4 D187E (human)) was “binds” each time.

B2: WSC02 (peptide)
peptide: IVRWSKKVPCVS
notes: also called EPI-X4 WSC02; source: synthetic peptide (Fmoc solid-phase synthesis, HPLC-purified)
Turning to B2, the binding entry (in experiment [1]; with CXCR4 D262A (human); with CXCR4 D187E (human)) was “binds” in each case.

LVRYTKK [EPI-X4 408–414]: the binding entry in experiment [2] is on record as “binds”.
